# Tested on: primary human macrophages
# Experiment: Research Genetics Human GeneFilters arrays, hypoxia versus normoxia in resting and activated macrophages
# Format: cell-based
# Settings: Table 7, mRNA expression in hypoxia relative to normoxia
substance,measurement,setting,value
Vascular endothelial growth factor,RATIO Hypoxia/Normoxia (activated),activated macrophages,1.97
same,RATIO Hypoxia/Normoxia (resting),resting macrophages,1.53
